These are yes or no findings as the source states them, for the method shown. In cells and extracts the contact can be indirect. For some of these results: Binding calls can cover weak binding; strength is not graded here.

The values below come from publication PMC3409535.

What all share (test): co-IP; 293T cells transfected with different amounts of FLAG-tagged codon-optimized integrases; extraction buffer 400 mM NaCl, 0.5% Triton X-100, 50 mM Tris-HCl pH 8, 2 mM MgCl2, 5% glycerol; extracts treated with DNAase and precleared; anti-FLAG IP, FLAG-peptide elution, Western blot for endogenous TNPO3
On the technique in general: In western blotting, separated proteins are transferred to a membrane and probed.

Experiment [1] concerns the target FLAG-tagged BIV integrase (bovine immunodeficiency virus (BIV)).
In experiment [2] the target is FLAG-tagged EIAV integrase (equine infectious anemia virus (EIAV)).
Experiment [3] has as its target FLAG-tagged FIV integrase (Feline immunodeficiency virus (FIV)).
Experiment [4] addresses FLAG-tagged HIV-1 integrase (HIV-1).
The target of experiment [5] is FLAG-tagged HIV-2 integrase (HIV-2).
Experiment [6] concerns the target FLAG-tagged MLV integrase (murine leukemia virus (MLV)).
In experiment [7] the target is FLAG-tagged SIVmac integrase (SIVmac).

B1: TNPO3 (protein, UniProt Q9Y5L0-2 1-923)
chain: MEGAKPTLQLVYQAVQALYHDPDPSGKERASFWLGELQRSVHAWEISDQLLQIRQDVESCYFAAQTMKMKIQTSFYELPTDSHASLRDSLLTHIQNLKDLSPVIVTQLALAIADLALQMPSWKGCVQTLVEKYSNDVTSLPFLLEILTVLPEEVHSRSLRIGANRRTEIIEDLAFYSSTVVSLLMTCVEKAGTDEKMLMKVFRCLGSWFNLGVLDSNFMANNKLLALLFEVLQQDKTSSNLHEAASDCVCSALYAIENVETNLPLAMQLFQGVLTLETAYHMAVAREDLDKVLNYCRIFTELCETFLEKIVCTPGQGLGDLRTLELLLICAGHPQYEVVEISFNFWYRLGEHLYKTNDEVIHGIFKAYIQRLLHALARHCQLEPDHEGVPEETDDFGEFRMRVSDLVKDLIFLIGSMECFAQLYSTLKEGNPPWEVTEAVLFIMAAIAKSVDPENNPTLVEVLEGVVRLPETVHTAVRYTSIELVGEMSEVVDRNPQFLDPVLGYLMKGLCEKPLASAAAKAIHNICSVCRDHMAQHFNGLLEIARSLDSFLLSPEAAVGLLKGTALVLARLPLDKITECLSELCSVQVMALKKLLSQEPSNGISSDPTVFLDRLAVIFRHTNPIVENGQTHPCQKVIQEIWPVLSETLNKHRADNRIVERCCRCLRFAVRCVGKGSAALLQPLVTQMVNVYHVHQHSCFLYLGSILVDEYGMEEGCRQGLLDMLQALCIPTFQLLEQQNGLQNHPDTVDDLFRLATRFIQRSPVTLLRSQVVIPILQWAIASTTLDHRDANCSVMRFLRDLIHTGVANDHEEDFELRKELIGQVMNQLGQQLVSQLLHTCCFCLPPYTLPDVAEVLWEIMQVDRPTFCRWLENSLKGLPKETTVGAVTVTHKQLTDFHKQVTSAEECKQVCWALRDFTRLFR
For B1, the binding result in experiment [1] is recorded as “no binding”; in experiment [2] it was “no binding”; in experiment [3] it was “binds weakly”; in experiment [4] it was “binds”; in experiment [5] it was “binds”; in experiment [6] it was “no binding”. Moreover, the binding result in experiment [7] is reported as “binds”.
